Test results: publication PMC7819943, “Rice protein-binding microarrays: a tool to detect cis-acting elements near promoter regions in rice”
The list shows a part of the results.

The sequences below were run against T1, OsSMF1 (Oryza sativa, UniProt Q6ZLB0 1-436) (assay: protein-binding microarray (RPBM); PBS, 2% BSA, 51.3 ng/ul salmon testes DNA, 50 uM zinc acetate, 200 nM TF, 25 C, 1 h; high values mean tight binding). Details: protein: recombinant; tags: N-terminal polyhistidine and DsRed monomer fusion (pET32a); chain copies: 2; label: CyDye5-dUTP incorporated in the synthesized complementary strand; 3' TTTTT single-stranded linker to array surface; dsDNA, one strand shown.
T1 sequence: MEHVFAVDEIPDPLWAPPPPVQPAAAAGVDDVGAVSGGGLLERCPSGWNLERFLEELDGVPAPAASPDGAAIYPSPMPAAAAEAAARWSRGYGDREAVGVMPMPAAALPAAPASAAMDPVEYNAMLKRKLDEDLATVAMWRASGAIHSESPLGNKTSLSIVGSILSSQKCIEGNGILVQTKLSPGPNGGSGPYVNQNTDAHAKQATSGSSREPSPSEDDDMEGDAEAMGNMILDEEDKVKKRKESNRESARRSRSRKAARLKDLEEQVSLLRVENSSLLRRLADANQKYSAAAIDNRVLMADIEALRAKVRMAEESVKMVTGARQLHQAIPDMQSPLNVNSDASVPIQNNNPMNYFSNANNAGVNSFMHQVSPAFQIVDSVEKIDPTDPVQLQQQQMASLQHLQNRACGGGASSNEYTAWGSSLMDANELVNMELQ
Outline: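 Binding signal is defined as the fluorescence intensity of each feature in arbitrary units, read on an Axon 4000B scanner. Transcription factors with N-terminal polyhistidine and DsRed fusions came from E. coli BL21-CodonPlus and were purified on Ni–NTA. They were incubated at 200 nM for 1 h at 25 °C on a custom Agilent array that had been made double-stranded with Cy5-dUTP, with 50 µM zinc acetate present, and the array was washed.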

Sequence | binding signal
GGACGCCGAGGCGCTGCTCGGCCACGCCCGCCTCGCCGCCCGGAGTCACCTAGTGCAG | 4000 fluorescence intensity (a.u.)
AAGCACGACATAATATATGTACCGGCAGATCGACTCAGCTCGGAGTCACCTAGTGCAG | 3780 fluorescence intensity (a.u.)
ACATAGAGTTGGGTGTGTTAGATACGGGTAAAGCTCCATTCGGAGTCACCTAGTGCAG | 17500 fluorescence intensity (a.u.)
CATCCAGACCATCCTGTCGGAGAAGAGCGGCAGGGTGACGCGGAGTCACCTAGTGCAG | 3990 fluorescence intensity (a.u.)
GACCCGGAGGTCGCCGTTGTCGTTTCTCTCTCTTACCATGCGGAGTCACCTAGTGCAG | 3470 fluorescence intensity (a.u.)
CTCCTCTCCCGCGCGCCACGCCCTCCCTCCCCTTCCCCTTCGGAGTCACCTAGTGCAG | 4060 fluorescence intensity (a.u.)
TTTAGTTGGTGTACACGGTGTGTACACGTGAGGGCCTGTGCGGAGTCACCTAGTGCAG | 6300 fluorescence intensity (a.u.)
AAAAGTAAAGAAACAGTTGCAACGTCACCAAACCGCCGATCGGAGTCACCTAGTGCAG | 10300 fluorescence intensity (a.u.)
ACTTATCCAAATACAAATGACATGGACACGCAATTATCCTCGGAGTCACCTAGTGCAG | 4590 fluorescence intensity (a.u.)
CATCGTCCGAAGCCAGCCTTACGTGGTCGACATGCACGTCCGGAGTCACCTAGTGCAG | 4320 fluorescence intensity (a.u.)
TAGTTAGAGGTATCATCAGGGATGACATGCATACAATGTTCGGAGTCACCTAGTGCAG | 3180 fluorescence intensity (a.u.)
TCCATGTATATTACATCATGGGGTTATGTAACATCACTGACGGAGTCACCTAGTGCAG | 8280 fluorescence intensity (a.u.)
CTGCGGCCGTTCTTTCCTTTTCGGTTTCATACGTGGGGTCCGGAGTCACCTAGTGCAG | 5130 fluorescence intensity (a.u.)
CTTATCTAGATTCATTAACATCCGTATGAATGTGGAAAATCGGAGTCACCTAGTGCAG | 3790 fluorescence intensity (a.u.)
CCACACTTTTCTACTCTCATGGCCCACATGTCATACACTCCGGAGTCACCTAGTGCAG | 3710 fluorescence intensity (a.u.)
TGATTGAGCTGAGAGAGAGACGAGTGTGAGTGTGAGTCAGCGGAGTCACCTAGTGCAG | 8420 fluorescence intensity (a.u.)
CTTGCTGTCTTCCTCCTGACGTGTCATCGTCGGCCTTGCTCGGAGTCACCTAGTGCAG | 22900 fluorescence intensity (a.u.)
TACGAAGCACGGCGACTTTAGCCTTCTCGAACACGTCGAACGGAGTCACCTAGTGCAG | 4060 fluorescence intensity (a.u.)
TTAGTGTTAAAGCCGTGAAAAGAAAACACGTGTAAAATTTCGGAGTCACCTAGTGCAG | 5990 fluorescence intensity (a.u.)
GCCTTGTTTATTAGTATTACCATGTGGCTGATGCAGCCTACGGAGTCACCTAGTGCAG | 3700 fluorescence intensity (a.u.)
AGTTTGGGTTTTCCGCTGACGTGGACTCCCACGTATTCTCCGGAGTCACCTAGTGCAG | 16300 fluorescence intensity (a.u.)

Sequence | binding signal
TGACGAGAGGTATATATTCCTGCAGAGAAGCAGTGCAAAACGGAGTCACCTAGTGCAG | 35300 fluorescence intensity (a.u.)
GAGAACTGGCTGGTGTCCAATGACGCTGTCTGTTGCGATCCGGAGTCACCTAGTGCAG | 3700 fluorescence intensity (a.u.)
TGAAAACCAGCAGCAGTCGTCATCGATCTCGAGCGCCACACGGAGTCACCTAGTGCAG | 3330 fluorescence intensity (a.u.)
ATAAACTCTTTGGACCGCCGGTCAGCGTACATCCATTGCCCGGAGTCACCTAGTGCAG | 3520 fluorescence intensity (a.u.)
CACGTGAATTATGTATGACGAGATCGTGACTTATTTCTGACGGAGTCACCTAGTGCAG | 5640 fluorescence intensity (a.u.)
TTCTCTCTCTCCTGTGTTTTGTCTACCACGTTCTCAACCCCGGAGTCACCTAGTGCAG | 3190 fluorescence intensity (a.u.)
AAAGTTCTAATGAGGATAATGGAAATGCTGACCTGGCTTCCGGAGTCACCTAGTGCAG | 11600 fluorescence intensity (a.u.)
ACAGACTTGTTTAAGTTACAAGACGATACTATAAGAATTTCGGAGTCACCTAGTGCAG | 41100 fluorescence intensity (a.u.)
TTGATTGACTAAACTGTCACGTCAGCGTCATATTGACGAACGGAGTCACCTAGTGCAG | 12600 fluorescence intensity (a.u.)
CTCACAGGACAGTGATGTGGCGCCAAGTTGCCATGTGGCACGGAGTCACCTAGTGCAG | 17400 fluorescence intensity (a.u.)
GCTGAAAAGATATATATGATTCCTCCTCCTCCTCCAGGTACGGAGTCACCTAGTGCAG | 18700 fluorescence intensity (a.u.)
CCGCAAGCCTGCACGACACGTGAACACGAAATCCACAAGTCGGAGTCACCTAGTGCAG | 3240 fluorescence intensity (a.u.)
TGGTTTTGTGAATGCAGTCATCATATAATAAATAAACGTGCGGAGTCACCTAGTGCAG | 3450 fluorescence intensity (a.u.)
ATGGTTCTGATGTCATTGATAGATTTGAGAGAACATGTACCGGAGTCACCTAGTGCAG | 5100 fluorescence intensity (a.u.)
CTCTCGTCCTCGTCCGCTTCCAGATTCAGATCCACCCATCCGGAGTCACCTAGTGCAG | 3290 fluorescence intensity (a.u.)
GAGCAGGGCGCGACGTGACGGTGGTGGAGTGGCACGACAGCGGAGTCACCTAGTGCAG | 3610 fluorescence intensity (a.u.)
ATTTGGGATGTCTTTATCTCATCCAATTAATCCACGGATACGGAGTCACCTAGTGCAG | 49200 fluorescence intensity (a.u.)
ATCTCAACAATCAATCGAATTAGACAAACAACTCATCAGGCGGAGTCACCTAGTGCAG | 3460 fluorescence intensity (a.u.)
GGCGGCGATCGTCCCCGTCAACGACGACGACGACGATGATCGGAGTCACCTAGTGCAG | 4120 fluorescence intensity (a.u.)
TGAATTACTACCGTGTACTCCGATCTCTCTCTGGATATACCGGAGTCACCTAGTGCAG | 3440 fluorescence intensity (a.u.)
ATTTCTCGACTTGCCTGAGATTCAGTTCTCGGTGGGTGATCGGAGTCACCTAGTGCAG | 17300 fluorescence intensity (a.u.)

Taken from above.
AAAGTTCTAATGAGGATAATGGAAATGCTGACCTGGCTTCCGGAGTCACCTAGTGCAG – binding signal: 11600 fluorescence intensity (a.u.)
TGACGAGAGGTATATATTCCTGCAGAGAAGCAGTGCAAAACGGAGTCACCTAGTGCAG – binding signal: 35300 fluorescence intensity (a.u.)
CTCTCGTCCTCGTCCGCTTCCAGATTCAGATCCACCCATCCGGAGTCACCTAGTGCAG – binding signal: 3290 fluorescence intensity (a.u.)
GAGCAGGGCGCGACGTGACGGTGGTGGAGTGGCACGACAGCGGAGTCACCTAGTGCAG – binding signal: 3610 fluorescence intensity (a.u.)
